At least one read-out could not be matched to a standard name with certainty.
Molecular target: T1, AdoHcy hydrolase (Bos taurus, UniProt Q3MHL4)
T1 construct: AdoHcy hydrolase from cow liver; from tissue; host or cells: cow liver
T1 sequence (Q3MHL4 2-432 limits assumed): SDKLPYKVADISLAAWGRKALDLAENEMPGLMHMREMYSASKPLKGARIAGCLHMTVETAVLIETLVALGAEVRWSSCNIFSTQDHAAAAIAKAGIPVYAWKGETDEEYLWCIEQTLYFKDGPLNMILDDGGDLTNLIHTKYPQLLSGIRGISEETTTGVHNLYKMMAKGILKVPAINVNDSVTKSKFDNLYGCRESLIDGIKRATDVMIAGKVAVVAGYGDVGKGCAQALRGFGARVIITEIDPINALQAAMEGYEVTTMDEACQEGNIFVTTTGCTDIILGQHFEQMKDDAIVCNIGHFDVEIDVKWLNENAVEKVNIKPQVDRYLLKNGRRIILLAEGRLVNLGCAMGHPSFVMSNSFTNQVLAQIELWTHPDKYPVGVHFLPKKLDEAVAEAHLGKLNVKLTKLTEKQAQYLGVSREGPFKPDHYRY
Assay: Inhibition of AdoHcy hydrolase from cow liver
Format: biochemical
Conditions: non-competitive inhibition of AdoHcy hydrolase

CC(C)CSC[C@H]1O[C@@H](n2cnc3c(N)nccc32)[C@H](O)[C@@H]1O [5'-Deoxy-5'-(isobutylthio)-3-deazaadenosine]
Ki: 400 µM | Ki (listed as 5'-deoxy-(isobutylthio)-3-deazaadenosine): 40 µM

From US4210639A, “5'-Deoxy-5'-(isobutylthio)-3-deazaadenosine, method of making same and its antiviral effect on Rous sarcoma virus and Gross murine leukemia virus” (The United States of America as represented by the …, priority 1978, dated 1980)
